Measurements from the supplement of paper PMC11150407.
Structures can show the parent of a compound that is named as a salt. Screen size: about 2,100 compounds; about 180 (8.6%) showed an effect of 50% or more. The list shows a part of the results.

Test system: MOLM1 and UCSD/AML1 (averaged)
Assay: cell viability relative to DMSO control (POC); higher = less growth inhibition
Conditions: 1 µM; 72 h
Method: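 Primary viability screen in the 3q26 EVI1-high AML cell lines MOLM1 and UCSD/AML1 (1.5e3 cells/well, 384-well), compounds at 1 uM for 72 h. ATP CellTiter-Glo read-out given as percent of viable cells over DMSO control (POC), averaged over duplicates. DMSO was the negative control and 5 uM etoposide the positive control. This mapping covers the MicroSource Spectrum and Selleck anticancer libraries (drug names).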

Row | Compound | cell viability [%]
1 | CCC(NC(C)C)C(O)c1ccc(O)c(O)c1 (centres undefined) | 72.7
2 | CCC(Cc1c(I)cc(I)c(N)c1I)C(=O)O (centres undefined) | 101
3 | C[C@]12CC[C@@H]3c4ccc(O)cc4CC[C@H]3[C@@H]1CC[C@@H]2OC(=O)CCC1CCCC1 | 97.7
4 | Nc1ccccc1NC(=O)c1ccc(CNC(=O)OCc2cccnc2)cc1 [Entinostat (MS-275, SNDX-275)] | 12.6
5 | NC1(C(=O)O)CCC1 | 102
6 | CC(=O)O[C@H]1CC[C@]2(C)C(C[C@@H](OC(C)=O)[C@]3(C)C4=CC(=O)O[C@H](c5ccoc5)[C@@]4(C)CCC23)C1(C)C (stereo partly drawn) [3-DEOXO-3beta-ACETOXYDEOXYDIHYDROGEDUNIN] | 92.3
7 | N=C(N)NC(=O)c1nc(Cl)c(N)nc1N | 94.6
8 | CCCCOC(=O)c1ccc(N)cc1 | 91.5
9 | CCCCC1=NC2(CCCC2)C(=O)N1Cc1ccc(-c2ccccc2-c2nnn[nH]2)cc1 | 96.6
10 | C[C@H]1COC2=C1C(=O)C(=O)c1c2ccc2c1CCCC2(C)C | 97.7
11 | CN(C)CC[C@H](CSc1ccccc1)Nc1ccc(S(=O)(=O)NC(=O)c2ccc(N3CCN(Cc4ccccc4-c4ccc(Cl)cc4)CC3)cc2)cc1[N+](=O)[O-] | 32.3
12 | CNS(=O)(=O)Cc1ccc2[nH]cc(CCN(C)C)c2c1 | 101
13 | CN[C@H](CC(C)C)C(=O)N[C@H]1C(=O)N[C@@H](CC(N)=O)C(=O)N[C@H]2C(=O)N[C@H]3C(=O)N[C@H](C(=O)N[C@H](C(=O)O)c4cc(O)cc(O)c4-c4cc3ccc4O)[C@H](O)c3ccc(c(Cl)c3)Oc3cc2cc(c3O[C@@H]2O[C@H](CO)[C@@H](O)[C@H](O)[C@H]2O[C@H]2C[C@](C)(N)[C@H](O)[C@H](C)O2)Oc2ccc(cc2Cl)[C@H]1O | 90.6
14 | NS(=O)(=O)c1cc2c(cc1Cl)N=CNS2(=O)=O | 103
15 | CCOC(=O)[C@H](CCc1ccccc1)N[C@@H](C)C(=O)N1[C@H](C(=O)O)C[C@@H]2CCC[C@@H]21 | 90.1
16 | CCC(CCC(C)C1CCC2C3CCC4CC(O)CCC4(C)C3CCC12C)C(C)C (centres undefined) | 89.6
17 | C=NC(C(=O)NC1C(=O)N2C1SC(C)(C)C2C(=O)O)c1ccccc1 (centres undefined) | 92.6
18 | CC1=CC2C(C(C)C)CCC(C)(O)C2CC1 (centres undefined) | 104
19 | COc1ccc2ccc(=O)oc2c1 | 97.3
20 | NS(=O)(=O)c1cc(C(=O)O)c(NCc2ccco2)cc1Cl | 95.1
21 | O=C(O)c1cc(=O)c2ccccc2o1 | 94
22 | CC(=O)CC(=O)CCC(=O)O | 96.2
23 | COc1ccc2oc(-c3ccccc3)c(OC)c(=O)c2c1 | 98.7
24 | Cc1cc(C2CCCCC2)n(O)c(=O)c1 | 80.1
25 | O=C(O)c1cc2cc(Cl)ccc2[nH]1 | 98.1

Reprinted from above (eleven entries):
Row | Compound | cell viability [%]
10 | C[C@H]1COC2=C1C(=O)C(=O)c1c2ccc2c1CCCC2(C)C | 97.7
11 | CN(C)CC[C@H](CSc1ccccc1)Nc1ccc(S(=O)(=O)NC(=O)c2ccc(N3CCN(Cc4ccccc4-c4ccc(Cl)cc4)CC3)cc2)cc1[N+](=O)[O-] | 32.3
12 | CNS(=O)(=O)Cc1ccc2[nH]cc(CCN(C)C)c2c1 | 101
13 | CN[C@H](CC(C)C)C(=O)N[C@H]1C(=O)N[C@@H](CC(N)=O)C(=O)N[C@H]2C(=O)N[C@H]3C(=O)N[C@H](C(=O)N[C@H](C(=O)O)c4cc(O)cc(O)c4-c4cc3ccc4O)[C@H](O)c3ccc(c(Cl)c3)Oc3cc2cc(c3O[C@@H]2O[C@H](CO)[C@@H](O)[C@H](O)[C@H]2O[C@H]2C[C@](C)(N)[C@H](O)[C@H](C)O2)Oc2ccc(cc2Cl)[C@H]1O | 90.6
14 | NS(=O)(=O)c1cc2c(cc1Cl)N=CNS2(=O)=O | 103
15 | CCOC(=O)[C@H](CCc1ccccc1)N[C@@H](C)C(=O)N1[C@H](C(=O)O)C[C@@H]2CCC[C@@H]21 | 90.1
16 | CCC(CCC(C)C1CCC2C3CCC4CC(O)CCC4(C)C3CCC12C)C(C)C (centres undefined) | 89.6
17 | C=NC(C(=O)NC1C(=O)N2C1SC(C)(C)C2C(=O)O)c1ccccc1 (centres undefined) | 92.6
18 | CC1=CC2C(C(C)C)CCC(C)(O)C2CC1 (centres undefined) | 104
19 | COc1ccc2ccc(=O)oc2c1 | 97.3
20 | NS(=O)(=O)c1cc(C(=O)O)c(NCc2ccco2)cc1Cl | 95.1

Following part

Row | Compound | cell viability [%]
26 | O=C(O)C(=O)O.[NH-]C1CCCCC1[NH-].[Pt+2] (centres undefined) [Oxaliplatin (Eloxatin)] | 41.3
27 | COc1ccc(C2C(=O)c3ccccc3C2=O)cc1 | 99
28 | Cc1cccc(C)c1NC(=O)C1CCCCN1C (centres undefined) | 89.4
29 | COc1cc(/C=C/C(=O)N2CCC=CC2=O)cc(OC)c1OC | 50.7
30 | CN(C)c1ccc2nc3ccc(=[N+](C)C)cc-3sc2c1 | 103
31 | CC(=O)Oc1ccc2c(c1)CC[C@@H]1[C@@H]2CC[C@]2(C)[C@@H](OC(C)=O)CC[C@@H]12 | 87.5
32 | Cc1ncc([N+](=O)[O-])n1CC(O)CCl (centres undefined) | 96
33 | COc1cc(OC)c2c(OC)c(-c3ccc4c(c3)OCO4)c(=O)oc2c1 | 101
34 | CN1C(C(=O)Nc2ccccn2)=C(O)c2sccc2S1(=O)=O | 96.9
35 | N=C(N)N | 96.3
36 | C[C@]12CC[C@H]3C(=CCc4cc(O)ccc43)[C@@H]1CCC2=O | 93.4
37 | C[C@]12C=CC(=O)C=C1CC[C@@H]1[C@@H]2[C@@H](O)C[C@@]2(C)[C@H]1CC[C@]2(O)C(=O)COP(=O)(O)O | 84.2
38 | CCCCCC/C=C\CCCCCCCc1cccc(O)c1C(=O)O | 81.2
39 | Cc1c(C(N)=O)cc([N+](=O)[O-])cc1[N+](=O)[O-] | 87.7
40 | C=C[C@H]1CN2CC[C@H]1C[C@@H]2[C@@H](O)c1ccnc2ccc(OC)cc12 | 109
41 | COc1ccc2c(c1OC)OC[C@@H](c1ccc(OC)c(OC)c1OC)C2 | 113
42 | CS(=O)(=O)c1ccc(C2=C(c3ccccc3)C(=O)OC2)cc1 | 95.1
43 | CN(C)CCC=C1c2ccccc2CCc2ccccc21 | 99.3
44 | O=C(Nc1ccccc1)c1ccccc1O | 97.1
45 | C=C1C(=O)[C@]23[C@H](CC[C@@H]1[C@@H]2O)[C@]12CO[C@@]3(O)[C@H](O)[C@H]1C(C)(C)CC[C@@H]2O | 94.3
46 | COC(=O)C[C@H]1C(C)(C)C(=O)[C@@H]2CC3=C(CC[C@]4(C)C3=CC(=O)O[C@H]4c3ccoc3)[C@@]1(C)C2=O | 93.4
47 | CCN(CC)CCOC(=O)C(c1ccccc1)C1CCCCC1 (centres undefined) | 103
48 | COCC1=C(C(=O)OC(C)OC(=O)OC(C)C)N2C(=O)[C@@H](NC(=O)/C(=N\OC)c3csc(N)n3)[C@H]2SC1 (some centres undefined) | 88.2
49 | CN1CCC(c2c(O)cc(O)c3c(=O)cc(-c4ccccc4Cl)oc23)C(O)C1 (centres undefined) [Flavopiridol (Alvocidib) HCl] | 1.36
